According to publication PMC7346058:
These are yes or no findings as the source states them, for the method shown. In cells and extracts the contact can be indirect. Some results given as binding are weak or reduced against the parent protein; the word gives no strength.

By UniProt entry, the sequences of proteins in these tests, tags left out.
UniProt Q99459: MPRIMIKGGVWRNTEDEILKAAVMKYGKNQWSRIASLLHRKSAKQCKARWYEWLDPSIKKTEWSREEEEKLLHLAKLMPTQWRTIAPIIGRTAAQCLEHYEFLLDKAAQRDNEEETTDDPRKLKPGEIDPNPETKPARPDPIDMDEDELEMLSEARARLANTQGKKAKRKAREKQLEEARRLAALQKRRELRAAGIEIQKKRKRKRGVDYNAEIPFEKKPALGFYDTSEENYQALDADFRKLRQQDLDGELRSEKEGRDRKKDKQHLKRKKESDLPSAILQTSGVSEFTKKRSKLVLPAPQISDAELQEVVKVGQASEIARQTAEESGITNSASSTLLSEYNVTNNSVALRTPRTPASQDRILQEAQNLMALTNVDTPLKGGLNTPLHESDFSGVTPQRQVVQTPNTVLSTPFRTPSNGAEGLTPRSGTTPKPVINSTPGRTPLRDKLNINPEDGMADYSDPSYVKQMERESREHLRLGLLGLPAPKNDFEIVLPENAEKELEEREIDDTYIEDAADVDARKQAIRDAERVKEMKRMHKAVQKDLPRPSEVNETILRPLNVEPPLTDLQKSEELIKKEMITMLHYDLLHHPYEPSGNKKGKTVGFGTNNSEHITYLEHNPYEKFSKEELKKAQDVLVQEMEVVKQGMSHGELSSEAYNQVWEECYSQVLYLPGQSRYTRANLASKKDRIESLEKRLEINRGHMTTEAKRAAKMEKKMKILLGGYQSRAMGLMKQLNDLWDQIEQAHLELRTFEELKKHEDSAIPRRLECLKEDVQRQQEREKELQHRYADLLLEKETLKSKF

T1: annexin A7 (human (endogenous in multiple myeloma cells)) (UniProt P20073)
T1 sequence: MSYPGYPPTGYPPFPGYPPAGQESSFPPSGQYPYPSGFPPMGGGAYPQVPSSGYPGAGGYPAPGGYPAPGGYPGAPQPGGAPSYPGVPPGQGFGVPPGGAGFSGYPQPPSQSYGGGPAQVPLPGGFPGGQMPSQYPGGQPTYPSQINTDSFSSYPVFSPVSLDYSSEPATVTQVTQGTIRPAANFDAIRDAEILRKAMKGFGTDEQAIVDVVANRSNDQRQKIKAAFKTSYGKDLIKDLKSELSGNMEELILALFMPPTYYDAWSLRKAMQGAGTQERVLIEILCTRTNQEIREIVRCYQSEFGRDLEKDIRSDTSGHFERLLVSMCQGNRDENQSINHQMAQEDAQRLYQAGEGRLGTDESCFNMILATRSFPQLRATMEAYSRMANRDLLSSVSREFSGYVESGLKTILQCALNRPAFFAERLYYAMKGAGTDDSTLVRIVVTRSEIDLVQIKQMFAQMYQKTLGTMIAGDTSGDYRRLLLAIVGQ


How the values were obtained:
[1] = target: T1, annexin A7 (human (endogenous in multiple myeloma cells)); assay: co-IP; whole cell extract of multiple myeloma cells in RIPA lysate with protease inhibitor; rabbit anti-ANXA-7 or rabbit anti-CDC5L antibody 4 h at 4 °C, protein A/G agarose beads 1 h at 4 °C; rabbit IgG as control; Western blot
[2] = target: cell division cycle 5-like (human (endogenous in multiple myeloma cells)) (UniProt Q99459); assay: as above

| binding [1] | binding [2] | Molecule |
| --- | --- | --- |
| binds |  | cell division cycle 5-like (from UniProt Q99459 1-802) |
|  | binds | annexin A7 (protein, UniProt P20073 1-488) MSYPGYPPTGYPPFPGYPPAGQESSFPPSGQYPYPSGFPPMGGGAYPQVPSSGYPGAGGYPAPGGYPAPGGYPGAPQPGGAPSYPGVPPGQGFGVPPGGAGFSGYPQPPSQSYGGGPAQVPLPGGFPGGQMPSQYPGGQPTYPSQINTDSFSSYPVFSPVSLDYSSEPATVTQVTQGTIRPAANFDAIRDAEILRKAMKGFGTDEQAIVDVVANRSNDQRQKIKAAFKTSYGKDLIKDLKSELSGNMEELILALFMPPTYYDAWSLRKAMQGAGTQERVLIEILCTRTNQEIREIVRCYQSEFGRDLEKDIRSDTSGHFERLLVSMCQGNRDENQSINHQMAQEDAQRLYQAGEGRLGTDESCFNMILATRSFPQLRATMEAYSRMANRDLLSSVSREFSGYVESGLKTILQCALNRPAFFAERLYYAMKGAGTDDSTLVRIVVTRSEIDLVQIKQMFAQMYQKTLGTMIAGDTSGDYRRLLLAIVGQ |
